Assay results taken from the supplement of paper PMC6411743.
± gives the standard deviation of the averaged measurements. This is a selection; strong and weak results do not stand in their true shares.

Amino acid sequences for entries named in this document (tags omitted). A change or cut given only in a name is not applied to a line headed by its entry.
UniProt Q9BZZ5: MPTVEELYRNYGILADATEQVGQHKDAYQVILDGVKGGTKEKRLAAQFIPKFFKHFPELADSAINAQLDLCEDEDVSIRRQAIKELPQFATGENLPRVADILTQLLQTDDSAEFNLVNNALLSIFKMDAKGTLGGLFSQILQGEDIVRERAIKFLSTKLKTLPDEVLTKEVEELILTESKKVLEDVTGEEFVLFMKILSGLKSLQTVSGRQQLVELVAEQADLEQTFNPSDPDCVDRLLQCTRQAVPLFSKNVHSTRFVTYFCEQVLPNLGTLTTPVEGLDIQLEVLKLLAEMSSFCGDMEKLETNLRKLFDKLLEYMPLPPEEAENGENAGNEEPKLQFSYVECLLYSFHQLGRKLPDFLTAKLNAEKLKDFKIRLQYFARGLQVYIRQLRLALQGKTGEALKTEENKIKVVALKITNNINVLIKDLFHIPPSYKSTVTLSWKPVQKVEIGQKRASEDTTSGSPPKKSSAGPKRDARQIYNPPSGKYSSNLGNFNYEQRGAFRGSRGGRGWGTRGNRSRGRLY
UniProt P29558: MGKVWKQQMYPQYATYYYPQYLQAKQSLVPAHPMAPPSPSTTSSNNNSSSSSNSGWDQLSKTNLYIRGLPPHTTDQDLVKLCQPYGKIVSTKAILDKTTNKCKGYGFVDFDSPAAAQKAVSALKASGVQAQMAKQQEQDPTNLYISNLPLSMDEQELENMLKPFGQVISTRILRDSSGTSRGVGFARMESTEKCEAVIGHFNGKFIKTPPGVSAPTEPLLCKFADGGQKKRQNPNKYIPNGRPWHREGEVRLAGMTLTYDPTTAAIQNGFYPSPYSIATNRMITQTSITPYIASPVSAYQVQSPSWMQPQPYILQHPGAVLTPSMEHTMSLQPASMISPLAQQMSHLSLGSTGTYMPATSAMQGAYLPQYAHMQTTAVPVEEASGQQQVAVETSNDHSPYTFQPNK
UniProt Q6UW02: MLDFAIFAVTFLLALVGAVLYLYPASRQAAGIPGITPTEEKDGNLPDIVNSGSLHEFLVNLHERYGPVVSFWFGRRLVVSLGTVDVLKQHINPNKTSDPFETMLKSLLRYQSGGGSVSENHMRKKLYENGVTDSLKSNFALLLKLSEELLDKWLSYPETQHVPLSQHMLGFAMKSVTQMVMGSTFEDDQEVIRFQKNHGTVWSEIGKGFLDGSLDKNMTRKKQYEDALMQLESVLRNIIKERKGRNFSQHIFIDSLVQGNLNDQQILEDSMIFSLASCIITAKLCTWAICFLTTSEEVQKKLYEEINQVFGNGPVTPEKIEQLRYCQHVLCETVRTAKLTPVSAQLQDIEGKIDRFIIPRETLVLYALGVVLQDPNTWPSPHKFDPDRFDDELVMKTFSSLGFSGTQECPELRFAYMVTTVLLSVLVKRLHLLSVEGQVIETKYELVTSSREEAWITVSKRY
UniProt Q6NWY9: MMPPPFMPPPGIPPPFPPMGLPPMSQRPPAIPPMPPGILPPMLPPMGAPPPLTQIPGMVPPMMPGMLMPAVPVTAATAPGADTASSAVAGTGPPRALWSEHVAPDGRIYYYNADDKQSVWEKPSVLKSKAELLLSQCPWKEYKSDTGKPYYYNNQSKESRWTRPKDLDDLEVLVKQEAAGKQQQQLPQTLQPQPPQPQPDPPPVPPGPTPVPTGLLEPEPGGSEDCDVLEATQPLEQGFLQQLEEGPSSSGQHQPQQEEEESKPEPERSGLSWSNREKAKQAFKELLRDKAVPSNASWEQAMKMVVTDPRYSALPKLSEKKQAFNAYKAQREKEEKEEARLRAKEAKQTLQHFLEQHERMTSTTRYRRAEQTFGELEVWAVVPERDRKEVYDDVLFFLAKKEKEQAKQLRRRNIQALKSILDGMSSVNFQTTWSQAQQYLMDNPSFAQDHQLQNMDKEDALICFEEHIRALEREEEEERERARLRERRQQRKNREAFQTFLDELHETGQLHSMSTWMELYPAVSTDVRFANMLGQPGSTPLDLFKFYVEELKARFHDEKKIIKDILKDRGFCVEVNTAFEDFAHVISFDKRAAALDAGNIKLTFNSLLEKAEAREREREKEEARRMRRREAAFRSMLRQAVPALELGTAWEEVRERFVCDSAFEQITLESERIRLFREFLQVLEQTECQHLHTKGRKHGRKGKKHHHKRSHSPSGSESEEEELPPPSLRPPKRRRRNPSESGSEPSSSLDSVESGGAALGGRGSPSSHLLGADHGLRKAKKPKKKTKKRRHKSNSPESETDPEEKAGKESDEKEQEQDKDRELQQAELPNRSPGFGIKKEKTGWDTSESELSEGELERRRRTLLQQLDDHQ
UniProt Q14534: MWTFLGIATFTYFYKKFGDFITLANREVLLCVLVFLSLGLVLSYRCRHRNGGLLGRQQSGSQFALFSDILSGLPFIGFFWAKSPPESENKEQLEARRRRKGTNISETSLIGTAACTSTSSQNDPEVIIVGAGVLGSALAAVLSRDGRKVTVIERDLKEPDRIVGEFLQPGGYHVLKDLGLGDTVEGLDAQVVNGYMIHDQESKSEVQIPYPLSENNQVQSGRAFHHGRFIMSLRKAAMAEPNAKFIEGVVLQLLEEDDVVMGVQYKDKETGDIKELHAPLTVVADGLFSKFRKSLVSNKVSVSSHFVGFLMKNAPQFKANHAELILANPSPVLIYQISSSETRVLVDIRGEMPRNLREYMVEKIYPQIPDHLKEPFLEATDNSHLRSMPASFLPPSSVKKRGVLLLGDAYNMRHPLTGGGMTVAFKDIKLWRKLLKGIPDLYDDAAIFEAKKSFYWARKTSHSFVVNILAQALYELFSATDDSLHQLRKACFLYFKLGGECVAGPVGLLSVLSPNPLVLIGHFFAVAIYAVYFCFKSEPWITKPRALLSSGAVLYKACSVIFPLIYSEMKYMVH
UniProt O00217, whole entry: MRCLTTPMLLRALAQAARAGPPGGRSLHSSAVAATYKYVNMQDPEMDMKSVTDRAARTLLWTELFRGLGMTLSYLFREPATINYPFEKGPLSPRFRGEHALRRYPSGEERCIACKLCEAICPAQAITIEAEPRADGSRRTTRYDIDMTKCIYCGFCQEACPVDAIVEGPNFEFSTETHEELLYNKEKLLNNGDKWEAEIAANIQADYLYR
UniProt O76062: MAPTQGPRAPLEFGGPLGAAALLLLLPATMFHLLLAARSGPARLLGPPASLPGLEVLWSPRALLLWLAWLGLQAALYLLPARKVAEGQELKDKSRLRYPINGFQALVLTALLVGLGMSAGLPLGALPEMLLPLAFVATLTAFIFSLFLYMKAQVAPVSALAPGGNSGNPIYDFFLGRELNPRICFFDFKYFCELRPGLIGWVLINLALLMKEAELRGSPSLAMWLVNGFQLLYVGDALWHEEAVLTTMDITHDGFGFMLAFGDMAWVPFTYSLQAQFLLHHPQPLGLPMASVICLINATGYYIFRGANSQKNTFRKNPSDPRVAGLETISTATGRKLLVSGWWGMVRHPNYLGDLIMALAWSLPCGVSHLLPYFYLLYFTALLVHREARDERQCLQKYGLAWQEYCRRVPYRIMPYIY
UniProt P55786: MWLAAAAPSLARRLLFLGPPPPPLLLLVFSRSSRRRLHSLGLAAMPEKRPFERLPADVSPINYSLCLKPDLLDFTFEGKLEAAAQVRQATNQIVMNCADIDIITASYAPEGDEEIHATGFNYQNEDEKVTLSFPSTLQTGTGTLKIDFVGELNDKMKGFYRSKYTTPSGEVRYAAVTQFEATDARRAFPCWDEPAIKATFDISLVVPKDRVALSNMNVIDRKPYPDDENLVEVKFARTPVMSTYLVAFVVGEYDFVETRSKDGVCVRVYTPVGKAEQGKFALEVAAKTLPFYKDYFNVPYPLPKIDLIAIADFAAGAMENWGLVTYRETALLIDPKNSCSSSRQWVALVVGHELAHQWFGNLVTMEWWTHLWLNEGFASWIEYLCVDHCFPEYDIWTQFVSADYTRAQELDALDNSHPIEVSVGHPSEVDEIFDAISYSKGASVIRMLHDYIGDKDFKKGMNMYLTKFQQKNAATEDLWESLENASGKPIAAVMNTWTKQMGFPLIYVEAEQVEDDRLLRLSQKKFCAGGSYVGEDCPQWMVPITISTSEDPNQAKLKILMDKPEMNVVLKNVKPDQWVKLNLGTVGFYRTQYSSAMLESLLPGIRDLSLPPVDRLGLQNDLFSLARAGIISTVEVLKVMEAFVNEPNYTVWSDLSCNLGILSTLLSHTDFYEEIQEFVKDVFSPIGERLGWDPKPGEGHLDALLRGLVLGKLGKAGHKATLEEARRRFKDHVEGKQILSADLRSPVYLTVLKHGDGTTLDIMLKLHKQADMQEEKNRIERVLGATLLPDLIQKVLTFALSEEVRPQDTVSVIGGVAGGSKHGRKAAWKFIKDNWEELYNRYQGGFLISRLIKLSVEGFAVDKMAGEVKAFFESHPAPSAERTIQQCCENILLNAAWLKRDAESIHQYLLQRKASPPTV
UniProt Q5JPF3: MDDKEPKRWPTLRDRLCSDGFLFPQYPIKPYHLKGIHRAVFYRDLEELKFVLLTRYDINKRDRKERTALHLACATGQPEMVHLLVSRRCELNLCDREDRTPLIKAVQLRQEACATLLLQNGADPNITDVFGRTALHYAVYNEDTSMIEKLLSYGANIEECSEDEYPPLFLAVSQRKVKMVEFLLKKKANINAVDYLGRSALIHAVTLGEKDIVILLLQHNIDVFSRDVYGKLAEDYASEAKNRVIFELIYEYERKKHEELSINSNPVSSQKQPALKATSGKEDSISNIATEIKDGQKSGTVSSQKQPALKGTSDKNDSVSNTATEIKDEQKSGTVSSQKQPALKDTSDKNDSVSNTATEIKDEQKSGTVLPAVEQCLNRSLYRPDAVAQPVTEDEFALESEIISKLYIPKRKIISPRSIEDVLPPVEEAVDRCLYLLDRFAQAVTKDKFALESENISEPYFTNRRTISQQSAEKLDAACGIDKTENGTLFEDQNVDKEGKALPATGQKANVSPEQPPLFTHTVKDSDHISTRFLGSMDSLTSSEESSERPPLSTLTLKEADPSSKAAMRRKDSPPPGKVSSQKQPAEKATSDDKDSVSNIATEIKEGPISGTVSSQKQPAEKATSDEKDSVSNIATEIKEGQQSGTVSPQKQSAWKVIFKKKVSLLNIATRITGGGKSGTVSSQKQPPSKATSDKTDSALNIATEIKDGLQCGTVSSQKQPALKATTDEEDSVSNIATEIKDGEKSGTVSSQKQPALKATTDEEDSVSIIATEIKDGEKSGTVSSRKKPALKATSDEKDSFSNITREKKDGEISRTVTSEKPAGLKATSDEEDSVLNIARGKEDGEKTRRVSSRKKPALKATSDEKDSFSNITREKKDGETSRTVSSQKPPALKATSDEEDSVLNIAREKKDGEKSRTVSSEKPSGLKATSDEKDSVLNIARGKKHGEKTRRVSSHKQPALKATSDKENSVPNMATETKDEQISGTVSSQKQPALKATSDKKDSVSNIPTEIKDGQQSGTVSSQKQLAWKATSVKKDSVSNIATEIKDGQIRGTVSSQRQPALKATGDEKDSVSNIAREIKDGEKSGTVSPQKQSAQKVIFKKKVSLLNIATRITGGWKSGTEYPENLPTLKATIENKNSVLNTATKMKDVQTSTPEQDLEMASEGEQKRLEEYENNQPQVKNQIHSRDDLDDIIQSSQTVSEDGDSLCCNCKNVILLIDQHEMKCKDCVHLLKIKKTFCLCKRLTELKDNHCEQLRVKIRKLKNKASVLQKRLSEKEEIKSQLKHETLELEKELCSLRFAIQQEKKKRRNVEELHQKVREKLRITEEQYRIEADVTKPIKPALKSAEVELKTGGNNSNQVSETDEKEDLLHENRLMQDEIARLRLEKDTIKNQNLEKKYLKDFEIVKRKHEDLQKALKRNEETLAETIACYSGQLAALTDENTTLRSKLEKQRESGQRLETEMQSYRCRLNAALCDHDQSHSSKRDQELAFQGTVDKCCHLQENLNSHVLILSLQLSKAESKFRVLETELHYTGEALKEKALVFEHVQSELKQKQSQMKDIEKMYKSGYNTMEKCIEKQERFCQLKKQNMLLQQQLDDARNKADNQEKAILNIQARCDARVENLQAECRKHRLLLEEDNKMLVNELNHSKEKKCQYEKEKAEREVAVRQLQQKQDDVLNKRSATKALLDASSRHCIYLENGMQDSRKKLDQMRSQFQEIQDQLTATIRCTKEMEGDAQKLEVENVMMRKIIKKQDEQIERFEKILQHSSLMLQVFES
UniProt Q9Y6C9: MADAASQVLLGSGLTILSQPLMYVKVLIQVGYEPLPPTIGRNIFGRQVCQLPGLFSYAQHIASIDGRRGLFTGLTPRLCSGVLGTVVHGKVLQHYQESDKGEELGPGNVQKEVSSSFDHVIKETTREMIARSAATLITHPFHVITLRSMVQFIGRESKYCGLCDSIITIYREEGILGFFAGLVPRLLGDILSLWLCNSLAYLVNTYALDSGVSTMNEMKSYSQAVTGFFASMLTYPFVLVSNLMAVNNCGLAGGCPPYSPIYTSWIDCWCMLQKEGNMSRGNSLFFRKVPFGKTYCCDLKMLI

Compound: Nc1ncnc2c1ncn2[C@@H]1O[C@H](COP(=O)(O)OP(=O)(O)NP(=O)(O)O)[C@@H](O)[C@H]1O [adenylyl imidodiphosphate]
Assay: NP40-soluble protein abundance relative to vehicle (solubility fold change) (ratio); higher = more soluble protein in presence of AMP-PNP
Procedure, shortened: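 Jurkat crude lysate (Dounce-homogenised) was treated with eight concentrations from 0.1 to 10 mM for 10 min at room temperature, then 3 min at 37 °C. It was solubilised with 0.8% NP40 and benzonase (60 min, 4 °C) and ultracentrifuged, and the supernatant was TMT-labelled for LC-MS/MS. Intensities were vsn-normalised, and the value is the fold change against the NP40-processed vehicle per replicate, from three independent experiments.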

Row | Target | NP40-soluble protein abundance (concentration: 1mM) | NP40-soluble protein abundance (concentration: 2mM) | NP40-soluble protein abundance (concentration: 4mM) | NP40-soluble protein abundance (concentration: 6mM) | NP40-soluble protein abundance (concentration: 8mM) | NP40-soluble protein abundance (concentration: 10mM)
1 | F5GXC5 and related entries (UniProt Q8TB96) | 1.01 ± 0.017 | 1.02 ± 0.054 | 1.01 ± 0.037 | 1.008 ± 0.0079 | 1.01 ± 0.024 | 0.996 ± 0.023
2 | F8VUY8 and related entries (UniProt Q96QD8) | 1 ± 0.015 | 1.07 ± 0.091 | 1 ± 0.022 | 0.967 ± 0.022 | 0.988 ± 0.014 | 0.989 ± 0.02
3 | G3V1C3 and related entries (UniProt Q9BZZ5) | 0.9316 ± 0.002 | 0.961 ± 0.029 | 0.928 ± 0.039 | 0.9692 ± 0.0088 | 0.96 ± 0.019 | 0.994 ± 0.049
4 | E7ETU5 and related entries (UniProt P29558) | 0.986 ± 0.045 | 1.02 ± 0.06 | 0.966 ± 0.068 | 0.933 ± 0.032 | 0.936 ± 0.053 | 0.948 ± 0.041
5 | F6VUX8 and related entries (UniProt Q9HC77) | 1 ± 0.012 | 1.02 ± 0.014 | 1.01 ± 0.027 | 1.02 ± 0.038 | 1.01 ± 0.051 | 1.02 ± 0.024
6 | F8VU90 and related entries (UniProt Q9NYL4) | 1.01 ± 0.042 | 1.04 ± 0.043 | 1.07 ± 0.062 | 0.997 ± 0.031 | 0.999 ± 0.084 | 0.994 ± 0.12
7 | F8W1A0 and related entries (UniProt P36873) | 0.983 ± 0.022 | 0.928 ± 0.056 | 0.972 ± 0.014 | 0.985 ± 0.03 | 0.986 ± 0.021 | 0.9667 ± 0.0073
8 | E9PHG5 and related entries (UniProt Q6UW02) | 0.987 ± 0.054 | 0.975 ± 0.054 | 0.991 ± 0.042 | 1.01 ± 0.088 | 1.01 ± 0.063 | 0.999 ± 0.079
9 | G0XQ39 and related entries (UniProt Q13586) | 1.03 ± 0.025 | 1.07 ± 0.096 | 1 ± 0.038 | 0.983 ± 0.027 | 0.962 ± 0.026 | 0.962 ± 0.028
10 | F8W689 and related entries (UniProt P48382) | 1.016 ± 0.0037 | 1.09 ± 0.11 | 1.05 ± 0.045 | 1.1 ± 0.046 | 1.08 ± 0.054 | 1.09 ± 0.027
11 | F8VU11 and related entries (UniProt Q6NWY9) | 0.9863 ± 0.0038 | 1.02 ± 0.032 | 1.01 ± 0.053 | 1.01 ± 0.087 | 1.01 ± 0.072 | 1.02 ± 0.089
12 | E7EMB1 and related entries (UniProt Q9UH65) | 1.025 ± 0.0068 | 1.07 ± 0.072 | 1.01 ± 0.018 | 1.01 ± 0.017 | 0.965 ± 0.027 | 1 ± 0.064
13 | E7EVQ6 and related entries (UniProt Q14534) | 1.03 ± 0.016 | 1.01 ± 0.062 | 1.02 ± 0.038 | 0.986 ± 0.04 | 1.02 ± 0.057 | 1.02 ± 0.082
14 | F8W8I6 and related entries (UniProt P31483) | 0.996 ± 0.023 | 0.966 ± 0.047 | 0.955 ± 0.035 | 0.953 ± 0.015 | 0.928 ± 0.051 | 0.924 ± 0.045
15 | E9PPW7 and related entries (UniProt O00217) | 0.985 ± 0.012 | 0.9883 ± 0.0019 | 0.9592 ± 0.0053 | 0.943 ± 0.07 | 0.93 ± 0.044 | 0.927 ± 0.056
16 | F8WE26 and related entries (UniProt O75431) | 1 ± 0.023 | 0.974 ± 0.041 | 0.995 ± 0.053 | 1.015 ± 0.0033 | 1.04 ± 0.036 | 0.995 ± 0.053
17 | F8W8W7 and related entries (UniProt O43493) | 0.994 ± 0.017 | 1.05 ± 0.021 | 1.006 ± 0.0057 | 0.989 ± 0.038 | 0.966 ± 0.022 | 1.009 ± 0.0041
18 | E5RIH5 and related entries (UniProt Q6NXR4) | 0.957 ± 0.042 | 0.99 ± 0.05 | 0.964 ± 0.04 | 0.939 ± 0.048 | 0.926 ± 0.034 | 0.925 ± 0.024
19 | F5H5D3 and related entries (UniProt Q9BQE3) | 0.99 ± 0.012 | 0.933 ± 0.071 | 0.94 ± 0.036 | 0.93 ± 0.052 | 0.94 ± 0.072 | 0.92 ± 0.076
20 | F2Z2X0 and related entries (UniProt O00746) | 1.04 ± 0.023 | 1.024 ± 0.0089 | 1.02 ± 0.022 | 1.04 ± 0.049 | 1.059 ± 0.0034 | 1.04 ± 0.047
21 | E9PLL1 and related entries (UniProt O76062) | 0.95 ± 0.07 | 0.962 ± 0.018 | 0.9511 ± 0.0069 | 0.954 ± 0.013 | 0.9649 ± 0.0067 | 0.909 ± 0.015
22 | F8WF69 and related entries (UniProt P09496) | 0.9494 ± 0.001 | 0.919 ± 0.057 | 0.873 ± 0.05 | 0.833 ± 0.033 | 0.806 ± 0.014 | 0.813 ± 0.018
23 | F5H212 and related entries (UniProt P15822) | 1.04 ± 0.1 | 1.08 ± 0.12 | 1.09 ± 0.2 | 1.13 ± 0.21 | 1.14 ± 0.27 | 1.25 ± 0.42
24 | E9PJE9 and related entries (UniProt P78410) | 1 ± 0.017 | 1.02 ± 0.021 | 1.01 ± 0.021 | 0.988 ± 0.021 | 0.965 ± 0.02 | 1 ± 0.063
25 | E9PLK3 and related entries (UniProt P55786) | 0.954 ± 0.033 | 0.847 ± 0.1 | 0.941 ± 0.022 | 0.913 ± 0.026 | 0.941 ± 0.024 | 0.881 ± 0.02
26 | E7EQR4 and related entries (UniProt P15311) | 1.02 ± 0.026 | 1.03 ± 0.019 | 0.983 ± 0.045 | 0.99 ± 0.026 | 0.966 ± 0.026 | 0.99 ± 0.081
27 | E9PJI0 and related entries (UniProt Q5JPF3) | 0.9631 ± 0.009 | 1 ± 0.076 | 0.959 ± 0.021 | 0.972 ± 0.014 | 0.959 ± 0.034 | 0.976 ± 0.058
28 | E9PIE4 and related entries (UniProt Q9Y6C9) | 0.948 ± 0.037 | 0.884 ± 0.074 | 0.941 ± 0.021 | 0.945 ± 0.052 | 1 ± 0.027 | 0.944 ± 0.022
29 | E7ER02 and related entries (UniProt Q9NZJ5) | 1 ± 0.024 | 1.02 ± 0.044 | 1 ± 0.017 | 0.994 ± 0.022 | 0.97 ± 0.039 | 0.999 ± 0.011
30 | E9PGT6 and related entries (UniProt Q99627) | 1.05 ± 0.036 | 1.06 ± 0.016 | 1.04 ± 0.039 | 0.973 ± 0.049 | 0.991 ± 0.046 | 1 ± 0.036

Excerpt: entries 14 to 15
Row | Target | NP40-soluble protein abundance (concentration: 1mM) | NP40-soluble protein abundance (concentration: 2mM) | NP40-soluble protein abundance (concentration: 4mM) | NP40-soluble protein abundance (concentration: 6mM) | NP40-soluble protein abundance (concentration: 8mM) | NP40-soluble protein abundance (concentration: 10mM)
14 | F8W8I6 and related entries (UniProt P31483) | 0.996 ± 0.023 | 0.966 ± 0.047 | 0.955 ± 0.035 | 0.953 ± 0.015 | 0.928 ± 0.051 | 0.924 ± 0.045
15 | E9PPW7 and related entries (UniProt O00217) | 0.985 ± 0.012 | 0.9883 ± 0.0019 | 0.9592 ± 0.0053 | 0.943 ± 0.07 | 0.93 ± 0.044 | 0.927 ± 0.056
